Measured values published in PubChem BioAssay AID540276 (National Center for Advancing Translational Sciences (NCATS), 2011).
The whole screen tested about 300,000 compounds, of which about 5,400 (1.8%) were called active. The inconclusive results got no clear call from the source; some entries with a clear call stand among them for comparison. Calls follow the shape of the full dose curve; tested in HEK293 cells. A potency beside an inconclusive call is a rough fit, not a confirmed value.

Assay: qHTS for inhibitors of binding or entry into cells for Marburg Virus
Conditions: Marburg virus pseudotyped entry inhibition, cell reporter; activity change, negative = inhibition: at 37.8 µM (top of the series) unless noted
% is scaled to controls: 0 for no effect and ±100 for the full control effect; potency is read from the fitted curve at half-maximal effect.

| Compound | Potency | activity change, negative = inhibition |
| --- | --- | --- |
| Cc1ccc(SCc2cn3c(C)csc3n2)cc1 | inconclusive: 16.4 µM [inhibitor, single point] |  |
| Cc1cccc(C)c1OCC(=O)Nc1ccncc1 | inconclusive: 0.316 µM [inhibitor, full curve, poor fit] |  |
| Cc1ccc(C)c(OCc2cc(C(=O)N3CCN(c4ccccc4C)CC3C)no2)c1 (configuration not stated) | inconclusive: 35.5 µM [inhibitor, single point] |  |
| CCCOC(=O)c1ccc(NC(=O)c2cc(OC)c(OC)c(OC)c2Br)cc1 | inconclusive: 32.6 µM [inhibitor, single point] |  |
| Cc1ccc(CNC(=O)CN(C(=O)C2(C)CC(=O)N=C3C=CC=CN32)c2ccccc2F)cc1 (configuration not stated) |  | inactive: 15.3% [at 46.1 µM] |
| CC(=O)Nc1ccc(Sc2ccc([N+](=O)[O-])o2)cc1 | inconclusive: 14.1 µM [inhibitor, partial curve, poor fit] |  |
| Clc1ccc2nc(-c3ccc(Br)s3)cn2c1 | inconclusive: 10.3 µM [inhibitor, partial curve, poor fit] |  |
| O=C(NCc1ccc2c(c1)OCO2)c1ccc(COc2cccc(Cl)c2)o1 | inconclusive: 1.78 µM [inhibitor, full curve] |  |
| CCCCNC(=O)c1cc2ccccc2s1 |  | inactive: 0.505% [at 46.1 µM] |
| Cc1ccc(CN=C(N)Nc2nc(C)cc(C)n2)cc1 | active: 11.2 µM |  |
| O=C(CCN1CCN(c2ccccc2F)CC1)Nc1ccccc1F |  | inactive: -13% |
| CCOC(=O)Cc1csc(NC(=O)c2ccncc2)n1 | inconclusive: 16.4 µM [inhibitor, single point] |  |
| CC(NC(=O)c1ccc(OC2CCN(S(=O)(=O)N(C)C)CC2)cc1)C1CC1 (configuration not stated) | inconclusive: 3.55 µM [activator, single point] |  |
| c1coc(-c2nnc(SCc3cn4ccccc4n3)o2)c1 |  | inactive: -8.22% |
| O=C(CCl)Nc1cccn2ncnc12 | inconclusive: 20 µM [inhibitor, single point] |  |
| O=C(CCSCCC(=O)NN=Cc1ccccc1O)NN=Cc1ccccc1O | inconclusive: 7.94 µM [activator, partial curve, poor fit] |  |
| Cc1ccc(C(=O)N/N=C\c2cccn2C)cn1 | inconclusive: 31.6 µM [activator, single point] |  |
| Cc1ccc(NC(=O)c2ccc3nc[nH]c3c2)c(O)c1 | inconclusive: 6.31 µM [activator, single point] |  |
| CC1(NCc2ccc(Cl)cc2)COP(=O)(NCc2ccccc2)OC1 (configuration not stated) |  | inactive: -8% |
| Cc1ccc(NC(=O)N/C=C/c2ccc(Cl)cc2)cc1 | inconclusive: 8.91 µM [inhibitor, single point] |  |
| Cc1cc(-c2ccco2)c(C#N)c2nc3ccccc3n12 | inconclusive: 20 µM [activator, partial curve, poor fit] |  |
| CN(c1ccc(OCC(=O)Nc2ccc3[nH]c(=O)[nH]c3c2)cc1)S(=O)(=O)c1ccc(Cl)cc1 | inconclusive: 20.6 µM [inhibitor, partial curve, poor fit] |  |
| Cc1cc(=O)[nH]c(N2CCN(c3ccc(Cl)cc3)CC2)n1 | inconclusive: 6.31 µM [inhibitor, single point] |  |
| O=C(Nc1ccc2c(c1)OCO2)C1C=CC(Br)O1 (configuration not stated) |  | inactive: 20.3% |

| Compound | Potency | activity change, negative = inhibition |
| --- | --- | --- |
| CCOC(=O)N1CCC(Nc2c(-c3ccc(C)c(C)c3)c(=O)c2=O)CC1 | inconclusive: 18.3 µM [inhibitor, single point] |  |
| O=C(C1CCC(CNS(=O)(=O)c2ccc(Br)s2)CC1)N1CCN(c2ccccc2)CC1 (configuration not stated) |  | inactive: 2.7% [at 46.1 µM] |
| CCn1c2ccccc2c2cc(NC(=O)c3cc(OC)c(OC)c(OC)c3)ccc21 | active: 1.41 µM |  |
| O=C(NCc1cccs1)C1CCN(S(=O)(=O)c2ccc(Br)s2)CC1 | inconclusive: 35.5 µM [activator, partial curve, poor fit] |  |
| COc1ccc(N(CC(=O)NCc2ccc(F)cc2)C(=O)CCC(=O)Nc2nccs2)cc1 |  | inactive: -4.66% [at 46.1 µM] |
| C=CCSC1=C(C#N)C(c2ccccc2Cl)CC(=O)N1 (configuration not stated) |  | inactive: 7.21% |
| COC(=O)c1cccc(NC(=O)Cn2nnc3ccccc32)c1 | inconclusive: 4.61 µM [inhibitor, single point] |  |
| O=C(NCCCN1CCCC1=O)c1ccc(OCc2ccccc2)cc1 | inconclusive: 6.51 µM [activator, full curve, poor fit] |  |
| CCCCCOC(=O)Cc1c(O)c2ccccc2n(C)c1=O |  | inactive: 3.75% |
| O=C(Cc1csc(-c2cccc(Cl)c2)n1)Nc1cccc(S(=O)(=O)NC2=NCCC2)c1 | inconclusive: 17.8 µM [inhibitor, single point] |  |
| CC(C)CN1CC(COCc2ccccc2)Oc2ccccc2S1(=O)=O (configuration not stated) | inconclusive: 3.15 µM [inhibitor, full curve, poor fit] |  |
| O=C(CC1CCCC1)Nc1cccc(Br)c1 | inconclusive: 17.8 µM [inhibitor, single point] |  |
| CCCCN(C)c1nnc(NC(=O)Nc2cccc(C(C)=O)c2)s1 |  | inactive: -14.7% [at 46.1 µM] |
| Cc1ccc(-c2cccc(C(=O)NCCc3ccccc3)n2)c2ccccc12 |  | inactive: 22.8% |
| Cc1cc(C)cc(Nc2cc(-c3ccccc3)nc(C)n2)c1 | inconclusive: 35.5 µM [inhibitor, single point] |  |
| N#Cc1ccc2c(c1)C[C@]1(CCCCN3C(=O)c4ccccc4C3=O)Oc3c(c(=O)oc4ccccc34)[C@H]2O1 | inconclusive: 0.0668 µM [inhibitor, full curve, poor fit] |  |
| CS(=O)(=O)N(CC(=O)N1CCCCC1)Cc1ccc(Cl)cc1 | inconclusive: 0.126 µM [inhibitor, full curve, poor fit] |  |
| O=C(CNS(=O)(=O)c1cccs1)Nc1ccc2c(c1)OCCO2 |  | inactive: 22.2% |
| Cc1ccc(NC(=O)CCC(=O)NCCO)cc1 | inconclusive: 5.62 µM [inhibitor, single point] |  |
| Cc1ccc(NC(=O)O/N=C/c2cccc([N+](=O)[O-])c2)cc1 | inconclusive: 5.62 µM [activator, partial curve] |  |
| COc1ccc(S(=O)(=O)N2CCCCCC2)cc1N(C)S(=O)(=O)c1ccc(C)cc1 | inconclusive: 6.31 µM [inhibitor, full curve] |  |
| Cc1ccc(NC(=O)Cc2ccc(Cl)c(Cl)c2)cc1S(=O)(=O)N(C)C | inconclusive: 16.4 µM [inhibitor, single point] |  |
| O=[N+]([O-])c1ccc(Cc2ccncc2)cc1 | inconclusive: 3.16 µM [activator, single point] |  |
| COc1ccc(O)c(-c2cc(C(F)(F)C(F)F)nc(-c3ccccc3)n2)c1 |  | inactive: -9.65% |

| Compound | Potency | activity change, negative = inhibition |
| --- | --- | --- |
| COc1ccc(NC(=O)c2ccccc2SC)cc1 |  | inactive: 22% [at 46.1 µM] |
| CC(C)(C)c1ccc(OCCC(=O)Nc2ccc(N3CCOCC3)cc2N2CCOCC2)cc1 | inconclusive: 25.1 µM [inhibitor, single point] |  |
| CCOC(=O)c1[nH]c(C)c(CCC(=O)OC)c1C |  | inactive: 24.4% |
| O=C(CS(=O)(=O)c1ccccc1)Nc1cccnc1 | inconclusive: 1.41 µM [activator, partial curve, poor fit] |  |
| O=C(COc1cccc2c1CCN(Cc1ccccc1)C2=O)N1CCCCC1 |  | inactive: 15.8% |
| CC(OC(=O)Cc1ccc(F)cc1)C(=O)NCc1ccc2c(c1)OCO2 (configuration not stated) | inconclusive: 2.51 µM [inhibitor, partial curve, poor fit] |  |
| O=C(CCS(=O)(=O)c1ccccc1Cl)NCCC1=CCCCC1 |  | inactive: -4.96% |
| O=C(O)c1nc(-c2ccccc2)n(-c2ccc(Cl)cc2)n1 | inconclusive: 0.1 µM [activator, full curve, poor fit] |  |
| CN1CCN(c2nc(N3CCN(CCO)CC3)nc3ccccc23)CC1 | inconclusive: 7.94 µM [inhibitor, partial curve, poor fit] |  |
| O=C(/C=C/Nc1ccc(Oc2ccccc2)cc1)c1ccco1 | inconclusive: 3.55 µM [activator, partial curve, poor fit] |  |
| CC1=NN(c2ccc(Cl)cc2)C(=O)/C1=C\c1cccn1-c1ccc(S(N)(=O)=O)cc1 |  | inactive: -2.87% |
| O=C(NCc1ccc(Cl)cc1)c1cccc(NC(=O)c2ccccc2)c1 | inconclusive: 22.4 µM [inhibitor, single point] |  |
| O=Cc1cn(Cc2ccc(F)cc2)c2ccccc12 | inconclusive: 10 µM [inhibitor, partial curve, poor fit] |  |
| O=c1c2sc(-c3ccccc3)cc2nc2n1CCC2 | active: 4.47 µM |  |
| COc1ccc(C(=O)N2CCC(C(=O)c3c(C)cc(C)cc3C)CC2)cc1 | inconclusive: 5.01 µM [inhibitor, partial curve, poor fit] |  |
| CN(c1ccccc1)S(=O)(=O)c1ccc(NC(=O)c2ccc(-c3ccccc3)cc2)cc1 |  | inactive: -19.8% |
| CCOc1ccc(NC(=O)c2cn(-c3ccc(OCC)cc3)c(=O)c3cc(OC)c(OC)cc23)cc1 | inconclusive: 5.8 µM [inhibitor, full curve] |  |
| CCCN1C(=O)C(Cc2nc3ccccc3c(=O)n2CC)c2ccccc21 (configuration not stated) |  | inactive: -0.0859% [at 46.1 µM] |
| CC(C1CC2CCC1C2)n1c(COc2ccccc2F)nnc1SCC(N)=O (configuration not stated) | inconclusive: 1.58 µM [inhibitor, full curve, poor fit] |  |
| O=C(NC(=S)Nc1ccc(CN2CCOCC2)cc1)c1ccc([N+](=O)[O-])cc1Cl | inconclusive: 6.31 µM [activator, single point] |  |
| O=C(CN1CCC(NC(=O)c2ccco2)CC1)Nc1cccc2ccccc12 |  | inactive: 1.72% |
| CCC1=[N+](CC(=O)c2ccc(C)cc2)CCn2c(C)ccc21 |  | inactive: -2.28% |
| COc1ccc(CNC(=O)CSc2nn3c(=O)c(C(C)(C)C)nnc3s2)cc1OC |  | inactive: 10% [at 46.1 µM] |
| O=C(Nc1ccccc1)Nc1ccccn1 | inactive |  |

One compound at a time (already shown):
`CCOC(=O)c1[nH]c(C)c(CCC(=O)OC)c1C` is listed as activity change, negative = inhibition: inactive: 24.4%
`CN1CCN(c2nc(N3CCN(CCO)CC3)nc3ccccc23)CC1` is listed as Potency: inconclusive: 7.94 µM [inhibitor, partial curve, poor fit]
